In patent publication US11406714B2, “Telodendrimers and nanocarriers and methods of using same” (The Research Foundation for the State University of New York, priority 2013, dated 2022):
At least one compound was matched to its structure with a doubt left.

Assay: In vitro drug release by dialysis
Format: physicochemical
[1] = oridonin released from micelles

With `C=C1C(=O)[C@]23[C@H](O)[C@H]1CC[C@H]2[C@@]12CO[C@]3(O)[C@@H](O)[C@@H]1C(C)(C)CC[C@@H]2O` [oridonine, Oridonin] the “Time of complete release” value (free drug) was 3 h, the “Time at which 50% drug released” value [1] was 1 h and the “Time of complete release” value [1] was ≤ 8 h.
